Experimental data reported in US20240336686A1.
These are yes or no findings as the source states them, for the method shown. Some results given as binding are weak or reduced against the parent protein; the word gives no strength.

Protein sequences, listed by entry. Tags and fused reporters are not part of them. Lines headed by an entry give the natural chain unless they say otherwise; changes in a name come on top. Chains listed by the source or under a name are the forms on record and can include a tag or linker. Residues count along the entry.
UniProt P78324: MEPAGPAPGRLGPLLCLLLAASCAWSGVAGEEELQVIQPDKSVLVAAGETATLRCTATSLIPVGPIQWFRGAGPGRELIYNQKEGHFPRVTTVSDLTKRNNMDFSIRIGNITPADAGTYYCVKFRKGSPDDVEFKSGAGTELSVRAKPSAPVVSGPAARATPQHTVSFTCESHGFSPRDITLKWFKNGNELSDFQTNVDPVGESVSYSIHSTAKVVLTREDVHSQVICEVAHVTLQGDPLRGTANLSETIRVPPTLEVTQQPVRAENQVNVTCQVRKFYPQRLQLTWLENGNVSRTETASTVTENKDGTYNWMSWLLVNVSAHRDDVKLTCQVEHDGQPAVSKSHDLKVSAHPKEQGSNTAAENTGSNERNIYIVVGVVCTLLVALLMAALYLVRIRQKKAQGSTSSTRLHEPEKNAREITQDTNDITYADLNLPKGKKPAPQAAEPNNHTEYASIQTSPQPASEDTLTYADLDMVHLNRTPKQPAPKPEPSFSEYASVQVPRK
human SIRPα v1 on CHOK1 cells: residues 31-504 of P78324
His tagged human SIRPα v1 ECD: residues 31-373 of P78324

Tests used:
[1] = target: His tagged human SIRPα v1 ECD (human) (UniProt P78324); assay: HDX-MS
[2] = target: human SIRPα v1 on CHOK1 cells (human) (UniProt P78324); assay: FACS; CHOK1 or 293F cells stably expressing human SIRPα v1

B1: Reference anti-SIRPα antibody hu1H9G4 (antibody, human IgG4, V domains shown)
VH: QVQLVQSGAEVKKPGASVKVSCKASGYTFTSYWITWVKQAPGQGLEWIGDIYPGSGSTNHIEKFKSKATLTVDTSISTAYMELSRLRSDDTAVYYCATGYGSSYGYFDYWGQGTLVTVSS
VL: DIQMTQSPSSLSASVGDRVTITCRASENIYSYLAWYQQKPGKAPKLLIYTAKTLAEGVPSRFSGSGSGTDFTLTISSLQPEDFATYYCQHQYGPPFTFGQGTKLELK
- binding [1]: binds
- binding [2]: binds
